In US11040035B2, “3-oxo-2,6-diphenyl-2,3-dihydropyridazine-4-carboxamides” (BAYER PHARMA AKTIENGESELLSCHAFT, priority 2016, dated 2021):
Where “and” joins values, the source holds several entries; their conditions need not be identical. Identical values can stand only once. At least one read-out could not be matched to a standard name with certainty.

Test system: TNFa production by LPS-stimulated human monocytes
Assay: In vitro assay 4: rescue of TNFa production from human primary monocytes
Assay type: cell-based
Details: 10 ng/mL LPS + 200 μM KA, 18 hours, highest percent TNFa rescue relative to highest rescue with GNF-351, one value per donor
Protocol: In Vitro Assay 4: Rescue of TNFa Production from Human Primary Monocytes
The ability of the substances to enhance immune cell activity was determined. The substances were tested for their capacity to reverse KA-induced inhibition of TNFa production by LPS-stimulated human monocytes. Human monocytes were purified by negative selection from donor PBMCs using Miltenyi beads and seeded at 2×10^5 cells/well in complete growth medium (RPMI 1640, 10% FCS). Monocytes were incubated with 10 ng/mL LPS (0127:68, #L4516, Sigma) and 200 μM KA (#3375, Sigma) and substances were added at concentrations of 1 μM, 0.3 μM and 0.1 μM and cultured for 18 hours. LPS alone served as the positive control. TNFa production in the supernatant was measured by Meso Scale Discovery immunassay and the ability of the substances to rescue TNFa production was calculated as a percentage of LPS stimulation and KA-induced inhibition and normalized to the donor-specific response with the reference AHR antagonist compound GNF-351 (Smith et al., J Pharmacol Exp Ther, 2011, 338(1):318-27).

Cc1ccc(-c2cc(C(=O)NCC(O)C(F)(F)F)c(=O)n(-c3cc(F)cc(F)c3)n2)cc1 (single isomer, unassigned) [Example 54, 2-(3,5-Difluorophenyl)-6-(4-methylphenyl)-3-oxo-N-(3,3,3-trifluoro-2-hydroxypropyl)-2,3-dihydropyridazine-4-carboxamide]
Individual Donors % rescue TNFa normalised to ref cmpd: 13.7% and 84.3% and 60.5%

Cc1ccc(-c2cc(C(=O)NCC(O)C(F)(F)F)c(=O)n(-c3cc(F)cc(F)c3)n2)cc1 (single isomer, unassigned) [Example 53, 2-(3,5-Difluorophenyl)-6-(4-methylphenyl)-3-oxo-N-(3,3,3-trifluoro-2-hydroxypropyl)-2,3-dihydropyridazine-4-carboxamide]
Individual Donors % rescue TNFa normalised to ref cmpd: 58.3% and 68.1%
